The exact form of at least one protein or probe is not confirmed. Weaker means in comparison with the reference protein, sequence or condition of that experiment. At least one verdict rests on a figure or table, not on a statement of the authors.
What was measured:
Assay in all cases: filter binding
Conditions in all cases: Filter binding: 50 mM phosphate, 50 mM imidazole, 10 mM beta-mercaptoethanol, pH 7.5, room temperature, 30 min, 10 pmol 32P-labelled nucleic acid, recombinant protein, residues 1-259, label: 5'-32P
hN12 F147A (human) = hN12 F147A (human) (UniProt Q13148)
hN12 F147A-F149A (human) = hN12 F147A-F149A (human) (UniProt Q13148)
hN12 F149A (human) = hN12 F149A (human) (UniProt Q13148)
hN12 F229A (human) = hN12 F229A (human) (UniProt Q13148)
hN12 F229A-F231A (human) = hN12 F229A-F231A (human) (UniProt Q13148)
hN12 F231A (human) = hN12 F231A (human) (UniProt Q13148)
[1] = RRM1 mutants ~20-fold reduced, single-stranded DNA
[2] = RRM2 mutants 2- to 8-fold reduced, single-stranded DNA

Measured: binding result

UGUGUGUGUGUGUGUGUGUGUGUGUGUGUG [(UG)15 RNA]
binds more weakly: hN12 F147A (human); RRM1 mutants ~50-fold reduced | hN12 F147A-F149A (human); RRM1 mutants ~50-fold reduced | hN12 F149A (human); RRM1 mutants ~50-fold reduced | hN12 F229A (human); RRM2 mutants ~2-fold reduced | hN12 F229A-F231A (human); RRM2 mutants ~2-fold reduced | hN12 F231A (human); RRM2 mutants ~2-fold reduced

TGTGTGTGTGTGTGTGTGTGTGTGTGTGTG [(TG)15 DNA]
binds more weakly: hN12 F147A (human); [1] | hN12 F147A-F149A (human); [1] | hN12 F149A (human); [1] | hN12 F229A (human); [2] | hN12 F229A-F231A (human); [2] | hN12 F231A (human); [2]

Source: publication PMC3985631
